# This is one part of the list. The data scatter; read single values as rough.
# Protein sequences, listed by entry. Tags and fused reporters are not part of them. Lines headed by an entry give the natural chain unless they say otherwise; changes in a name come on top. Residues count along the entry.
# UniProt Q12962: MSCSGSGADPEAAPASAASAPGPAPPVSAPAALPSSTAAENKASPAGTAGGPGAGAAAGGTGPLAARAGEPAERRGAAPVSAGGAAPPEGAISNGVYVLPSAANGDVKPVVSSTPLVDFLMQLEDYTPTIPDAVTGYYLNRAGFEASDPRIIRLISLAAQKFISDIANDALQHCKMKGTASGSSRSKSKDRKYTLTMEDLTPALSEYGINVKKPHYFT
# UniProt Q9Y4P3: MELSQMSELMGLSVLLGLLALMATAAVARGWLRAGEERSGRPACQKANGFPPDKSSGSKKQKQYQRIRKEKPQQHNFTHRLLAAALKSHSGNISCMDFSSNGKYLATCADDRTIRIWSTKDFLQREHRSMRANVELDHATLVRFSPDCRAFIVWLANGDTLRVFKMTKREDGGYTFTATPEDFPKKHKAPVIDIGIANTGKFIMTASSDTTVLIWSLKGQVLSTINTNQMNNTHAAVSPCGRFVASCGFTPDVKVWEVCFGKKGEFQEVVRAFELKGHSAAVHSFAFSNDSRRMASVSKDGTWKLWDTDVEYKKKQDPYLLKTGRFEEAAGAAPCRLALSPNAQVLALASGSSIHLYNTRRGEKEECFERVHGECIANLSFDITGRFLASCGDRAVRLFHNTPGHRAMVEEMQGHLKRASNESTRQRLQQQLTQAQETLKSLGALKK
# UniProt Q9NXG2: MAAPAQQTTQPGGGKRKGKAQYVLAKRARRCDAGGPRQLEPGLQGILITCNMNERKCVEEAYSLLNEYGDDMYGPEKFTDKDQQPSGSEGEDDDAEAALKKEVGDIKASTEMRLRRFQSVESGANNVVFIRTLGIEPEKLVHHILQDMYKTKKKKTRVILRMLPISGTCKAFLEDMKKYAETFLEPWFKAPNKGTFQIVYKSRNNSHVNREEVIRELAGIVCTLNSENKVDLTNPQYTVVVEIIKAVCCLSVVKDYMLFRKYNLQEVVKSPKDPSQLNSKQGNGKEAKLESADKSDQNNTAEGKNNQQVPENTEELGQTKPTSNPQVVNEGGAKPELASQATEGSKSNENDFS
# UniProt Q8NHU6, 380-399: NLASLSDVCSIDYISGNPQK
# UniProt Q96BW9, 271-290: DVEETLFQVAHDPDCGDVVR
# UniProt Q15814, 173-196: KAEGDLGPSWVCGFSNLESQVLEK
# UniProt Q9P0N9: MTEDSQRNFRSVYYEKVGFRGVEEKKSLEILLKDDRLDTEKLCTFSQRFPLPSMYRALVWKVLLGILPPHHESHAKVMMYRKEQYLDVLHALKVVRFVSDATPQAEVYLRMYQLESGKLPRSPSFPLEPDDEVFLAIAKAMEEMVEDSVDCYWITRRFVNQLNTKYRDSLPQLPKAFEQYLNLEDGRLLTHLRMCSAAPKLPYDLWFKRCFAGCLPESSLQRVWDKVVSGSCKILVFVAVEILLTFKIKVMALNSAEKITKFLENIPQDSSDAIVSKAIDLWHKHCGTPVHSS
# UniProt Q14188: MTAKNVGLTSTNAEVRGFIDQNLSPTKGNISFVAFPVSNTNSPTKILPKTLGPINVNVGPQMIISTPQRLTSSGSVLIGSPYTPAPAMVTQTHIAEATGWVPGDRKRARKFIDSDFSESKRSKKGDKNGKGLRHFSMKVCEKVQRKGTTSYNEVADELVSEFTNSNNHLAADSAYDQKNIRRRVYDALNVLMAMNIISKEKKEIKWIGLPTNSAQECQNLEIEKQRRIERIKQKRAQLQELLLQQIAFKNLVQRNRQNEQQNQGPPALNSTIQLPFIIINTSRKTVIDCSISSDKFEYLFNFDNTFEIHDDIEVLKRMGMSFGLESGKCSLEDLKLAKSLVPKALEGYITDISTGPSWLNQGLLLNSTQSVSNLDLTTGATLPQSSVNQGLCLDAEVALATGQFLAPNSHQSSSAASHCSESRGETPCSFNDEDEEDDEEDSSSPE
# UniProt Q9UGI8: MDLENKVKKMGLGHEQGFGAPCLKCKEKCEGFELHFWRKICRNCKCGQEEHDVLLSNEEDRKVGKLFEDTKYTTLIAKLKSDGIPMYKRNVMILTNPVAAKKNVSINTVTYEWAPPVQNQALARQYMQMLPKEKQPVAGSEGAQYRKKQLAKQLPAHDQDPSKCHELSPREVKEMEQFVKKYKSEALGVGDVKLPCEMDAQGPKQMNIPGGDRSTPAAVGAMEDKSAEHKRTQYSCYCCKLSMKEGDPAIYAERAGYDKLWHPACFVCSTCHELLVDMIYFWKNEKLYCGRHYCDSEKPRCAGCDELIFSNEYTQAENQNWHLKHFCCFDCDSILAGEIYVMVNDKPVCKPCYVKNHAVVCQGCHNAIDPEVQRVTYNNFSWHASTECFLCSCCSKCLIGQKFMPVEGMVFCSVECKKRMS
# UniProt Q6PIY7: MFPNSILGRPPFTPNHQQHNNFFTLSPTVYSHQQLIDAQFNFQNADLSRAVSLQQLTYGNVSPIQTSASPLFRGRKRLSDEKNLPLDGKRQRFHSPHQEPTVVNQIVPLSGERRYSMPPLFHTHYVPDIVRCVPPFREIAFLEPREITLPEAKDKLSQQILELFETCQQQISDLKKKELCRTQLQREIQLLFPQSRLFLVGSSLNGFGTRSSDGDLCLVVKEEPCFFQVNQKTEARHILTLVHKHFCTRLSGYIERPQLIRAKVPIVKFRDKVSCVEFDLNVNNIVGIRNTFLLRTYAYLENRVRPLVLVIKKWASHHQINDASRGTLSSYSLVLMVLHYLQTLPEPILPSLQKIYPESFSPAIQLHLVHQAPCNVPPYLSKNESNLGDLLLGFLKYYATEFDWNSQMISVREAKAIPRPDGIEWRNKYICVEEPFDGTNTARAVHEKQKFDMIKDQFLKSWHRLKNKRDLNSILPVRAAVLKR
# UniProt Q6YHU6: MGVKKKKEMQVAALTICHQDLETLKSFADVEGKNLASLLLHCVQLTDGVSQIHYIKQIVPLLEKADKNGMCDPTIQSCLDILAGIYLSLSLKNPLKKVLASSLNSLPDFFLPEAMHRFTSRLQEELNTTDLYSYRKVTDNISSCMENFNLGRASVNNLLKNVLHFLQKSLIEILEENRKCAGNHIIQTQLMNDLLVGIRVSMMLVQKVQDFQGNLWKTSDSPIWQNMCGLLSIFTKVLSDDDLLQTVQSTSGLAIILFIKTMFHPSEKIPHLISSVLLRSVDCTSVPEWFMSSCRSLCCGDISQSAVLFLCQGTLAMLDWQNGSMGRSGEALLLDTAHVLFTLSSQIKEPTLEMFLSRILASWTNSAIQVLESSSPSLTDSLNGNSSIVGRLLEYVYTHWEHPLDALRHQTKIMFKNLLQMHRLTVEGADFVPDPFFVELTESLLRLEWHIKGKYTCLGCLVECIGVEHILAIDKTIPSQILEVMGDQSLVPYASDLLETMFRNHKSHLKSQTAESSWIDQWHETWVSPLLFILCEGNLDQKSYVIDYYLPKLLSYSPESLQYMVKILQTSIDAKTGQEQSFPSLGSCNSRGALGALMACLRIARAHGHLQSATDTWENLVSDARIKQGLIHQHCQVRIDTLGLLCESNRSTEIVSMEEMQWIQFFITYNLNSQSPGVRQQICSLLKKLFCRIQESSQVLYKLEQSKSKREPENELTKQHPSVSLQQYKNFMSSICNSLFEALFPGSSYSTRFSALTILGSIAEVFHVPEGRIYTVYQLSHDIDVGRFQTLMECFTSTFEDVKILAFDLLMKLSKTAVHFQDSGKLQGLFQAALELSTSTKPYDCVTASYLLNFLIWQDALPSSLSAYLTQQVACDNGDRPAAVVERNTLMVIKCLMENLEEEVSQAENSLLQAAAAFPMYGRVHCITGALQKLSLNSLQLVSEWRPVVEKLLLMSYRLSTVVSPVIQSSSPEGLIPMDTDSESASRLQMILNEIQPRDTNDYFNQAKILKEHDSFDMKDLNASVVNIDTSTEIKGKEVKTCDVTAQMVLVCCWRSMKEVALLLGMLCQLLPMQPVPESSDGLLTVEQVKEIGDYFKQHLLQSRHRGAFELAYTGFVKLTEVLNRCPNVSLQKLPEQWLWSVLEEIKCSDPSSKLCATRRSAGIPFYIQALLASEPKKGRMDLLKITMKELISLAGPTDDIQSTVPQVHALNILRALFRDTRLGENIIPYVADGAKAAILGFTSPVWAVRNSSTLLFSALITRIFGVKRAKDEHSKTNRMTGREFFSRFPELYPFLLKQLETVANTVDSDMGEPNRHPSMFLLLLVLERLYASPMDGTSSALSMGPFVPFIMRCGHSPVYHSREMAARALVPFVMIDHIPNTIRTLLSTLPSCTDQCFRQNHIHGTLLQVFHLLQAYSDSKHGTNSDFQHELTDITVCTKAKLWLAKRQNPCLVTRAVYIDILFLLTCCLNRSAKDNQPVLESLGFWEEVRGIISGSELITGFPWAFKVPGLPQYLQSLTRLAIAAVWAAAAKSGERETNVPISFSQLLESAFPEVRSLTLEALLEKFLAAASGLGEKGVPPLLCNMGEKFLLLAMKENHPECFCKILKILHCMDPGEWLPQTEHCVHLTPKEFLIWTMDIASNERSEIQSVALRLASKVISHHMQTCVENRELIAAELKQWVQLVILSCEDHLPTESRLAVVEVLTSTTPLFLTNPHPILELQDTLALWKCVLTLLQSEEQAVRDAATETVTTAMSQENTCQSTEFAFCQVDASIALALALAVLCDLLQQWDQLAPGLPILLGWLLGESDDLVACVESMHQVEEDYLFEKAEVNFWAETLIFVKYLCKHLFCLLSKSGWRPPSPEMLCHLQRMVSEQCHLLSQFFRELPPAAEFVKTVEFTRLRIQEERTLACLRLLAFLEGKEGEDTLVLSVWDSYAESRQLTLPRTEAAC
# UniProt Q9UBB9: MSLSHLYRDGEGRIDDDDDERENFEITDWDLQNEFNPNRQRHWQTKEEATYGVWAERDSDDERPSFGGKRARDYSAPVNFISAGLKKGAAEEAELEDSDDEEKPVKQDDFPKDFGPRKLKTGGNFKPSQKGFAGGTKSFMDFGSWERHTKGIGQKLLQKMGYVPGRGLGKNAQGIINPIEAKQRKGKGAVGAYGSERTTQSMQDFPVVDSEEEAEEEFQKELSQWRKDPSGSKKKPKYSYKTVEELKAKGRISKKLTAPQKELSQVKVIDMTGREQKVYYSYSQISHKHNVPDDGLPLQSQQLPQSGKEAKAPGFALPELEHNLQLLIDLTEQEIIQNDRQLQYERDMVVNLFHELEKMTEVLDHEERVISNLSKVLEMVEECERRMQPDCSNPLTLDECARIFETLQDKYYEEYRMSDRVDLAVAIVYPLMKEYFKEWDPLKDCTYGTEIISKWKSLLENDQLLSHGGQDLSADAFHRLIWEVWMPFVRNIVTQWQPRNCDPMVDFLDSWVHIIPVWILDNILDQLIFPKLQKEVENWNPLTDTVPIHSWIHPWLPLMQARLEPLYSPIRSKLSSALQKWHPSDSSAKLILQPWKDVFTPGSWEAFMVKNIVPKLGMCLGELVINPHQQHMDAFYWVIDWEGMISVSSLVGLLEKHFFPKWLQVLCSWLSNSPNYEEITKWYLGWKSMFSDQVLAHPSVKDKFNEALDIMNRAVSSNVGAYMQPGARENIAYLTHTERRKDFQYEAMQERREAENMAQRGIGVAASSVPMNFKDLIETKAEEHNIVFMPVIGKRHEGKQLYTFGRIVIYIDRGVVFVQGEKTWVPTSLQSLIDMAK
# UniProt Q9UPU7: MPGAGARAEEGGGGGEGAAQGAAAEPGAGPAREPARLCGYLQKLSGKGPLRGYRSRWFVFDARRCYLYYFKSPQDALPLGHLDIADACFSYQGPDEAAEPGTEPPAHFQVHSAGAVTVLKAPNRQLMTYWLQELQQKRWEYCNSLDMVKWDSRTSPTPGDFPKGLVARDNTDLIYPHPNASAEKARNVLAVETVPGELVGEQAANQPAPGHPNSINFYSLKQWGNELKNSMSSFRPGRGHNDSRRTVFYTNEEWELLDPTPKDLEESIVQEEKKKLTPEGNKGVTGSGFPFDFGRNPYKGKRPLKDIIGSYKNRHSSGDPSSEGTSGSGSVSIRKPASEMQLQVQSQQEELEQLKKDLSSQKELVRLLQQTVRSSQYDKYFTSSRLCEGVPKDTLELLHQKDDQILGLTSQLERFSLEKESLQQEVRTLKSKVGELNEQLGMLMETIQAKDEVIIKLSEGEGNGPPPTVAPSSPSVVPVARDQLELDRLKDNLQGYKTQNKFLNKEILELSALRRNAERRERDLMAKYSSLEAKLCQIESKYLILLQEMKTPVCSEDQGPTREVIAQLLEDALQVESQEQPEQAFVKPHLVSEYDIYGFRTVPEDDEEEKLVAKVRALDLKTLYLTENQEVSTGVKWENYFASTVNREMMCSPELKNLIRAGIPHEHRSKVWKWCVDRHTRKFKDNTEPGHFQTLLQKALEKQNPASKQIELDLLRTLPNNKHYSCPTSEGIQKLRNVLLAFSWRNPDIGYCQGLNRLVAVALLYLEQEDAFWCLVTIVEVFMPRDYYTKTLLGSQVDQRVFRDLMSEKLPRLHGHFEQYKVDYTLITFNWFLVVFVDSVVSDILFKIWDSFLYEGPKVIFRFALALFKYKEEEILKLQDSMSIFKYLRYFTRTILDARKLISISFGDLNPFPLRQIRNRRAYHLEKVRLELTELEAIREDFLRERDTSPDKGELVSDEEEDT
# Compound: ClCC(=O)N[C@@H]1CCCc2ccccc12
# Assay: log2 mean competition ratio of IA-DTB cysteine labelling (DMSO/compound) (log2 ratio); higher = stronger cysteine engagement by compound
# Details: 200 µM; treatment time: 4 h; cell line lysate: HEK293T
# Method: (§1)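 IA-DTB competitive cysteine chemoproteomics in HEK293T RIPA lysate. Lysates were treated with compound 29 or 30 at 50 or 200 µM for 4 h, then IA-DTB (500 µM, 1 h), trypsin-digested, NeutrAvidin-enriched and analysed by diaPASEF. Competition ratio = intensity DMSO / intensity compound (n=4 treated, n=64 DMSO); binding: mean log2 CR ≥ 1 and p ≤ 0.05 plus QC filters. Target is the cysteine site.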
row,Target,log2 mean competition ratio
1,TAF10 C174 (UniProt Q12962),0.434
2,TARS3 C74,0.305
3,TACC2 C2859 (UniProt O95359),0.123
4,TBCD C899,0.183
5,TBL2 C367 (UniProt Q9Y4P3),0.0466
6,TACC3 C662,-0.179
7,THUMPD1 C169 (UniProt Q9NXG2),-0.176
8,TDRD7 C103 (UniProt Q8NHU6),0.0223
9,TAMM41 C285 (UniProt Q96BW9),0.173
10,TECPR2 C282 (UniProt O15040),-0.352
11,TBCC C184 (UniProt Q15814),0.0534
12,TBC1D7 C195 (UniProt Q9P0N9),0.148
13,TBC1D4 C74 (UniProt O60343),0.126
14,TAX1BP1 C675 (UniProt Q86VP1),-0.0104
15,TFDP2 C329 (UniProt Q14188),0.101
16,TES C164 (UniProt Q9UGI8),-0.456
17,TADA3 C162 (UniProt O75528),-0.0459
18,TDRD7 C388 (UniProt Q8NHU6),-0.023
19,TBC1D22B C354 (UniProt Q9NU19),0.144
20,TARS3 C62,0.0841

# Compound: ClCC(=O)N[C@H]1CCCc2ccccc12
# Assay: as above
# Details: 50 µM; treatment time: 4 h; cell line lysate: HEK293T
# Method: as §1
row,Target,log2 mean competition ratio
1,TAF1C C831 (UniProt Q15572),0.116
2,TET2 C353 (UniProt Q6N021),0.0548
3,THUMPD1 C222 (UniProt Q9NXG2),-0.596
4,THUMPD3 C434 (UniProt Q9BV44),-0.0348
5,TBC1D9B C340 (UniProt Q66K14),-0.28
6,TENT2 C217 (UniProt Q6PIY7),-0.221
7,TDRD7 C692 (UniProt Q8NHU6),-0.174
8,TBC1D24 C29 (UniProt Q9ULP9),-0.317
9,THADA C683 (UniProt Q6YHU6),0.231
10,TGM2 C230,-0.0779
11,TGDS C5 (UniProt O95455),0.418
12,TANC1 C1136 (UniProt Q9C0D5),-0.246
13,TFIP11 C383 (UniProt Q9UBB9),0.0195
14,TAOK2 C623 (UniProt Q9UL54),-0.751
15,TBC1D2B C726 (UniProt Q9UPU7),0.214
16,TAF10 C174 (UniProt Q12962),-0.0543
17,TARS3 C74,0.0471

row,Target,log2 mean competition ratio
1,TBCD C899,0.0438
2,TBL2 C367 (UniProt Q9Y4P3),-0.0564
3,TACC3 C662,0.245
4,THUMPD1 C169 (UniProt Q9NXG2),0.426
5,TDRD7 C103 (UniProt Q8NHU6),0.0679
6,TAMM41 C285 (UniProt Q96BW9),-0.386
7,TECPR2 C282 (UniProt O15040),0.00422
8,TBCC C184 (UniProt Q15814),0.383
9,TBC1D7 C195 (UniProt Q9P0N9),0.156
10,TBC1D4 C74 (UniProt O60343),-0.0432
11,TAX1BP1 C675 (UniProt Q86VP1),-0.0182
12,TFDP2 C329 (UniProt Q14188),0.121
13,TES C164 (UniProt Q9UGI8),0.0695
14,TADA3 C162 (UniProt O75528),0.106
15,TDRD7 C388 (UniProt Q8NHU6),-0.0315
16,TBC1D22B C354 (UniProt Q9NU19),0.078
17,TARS3 C62,0.135

# From the supplement of paper PMC11732987, “Enantioselective OTUD7B fragment discovery through chemoproteomics screening and high-throughput optimisation” (Communications Chemistry, 2025)
